{
  "sequences": {"note": "Sequences of proteins named here, by UniProt entry; tags and fusion partners are left off.", "UniProt P03146": "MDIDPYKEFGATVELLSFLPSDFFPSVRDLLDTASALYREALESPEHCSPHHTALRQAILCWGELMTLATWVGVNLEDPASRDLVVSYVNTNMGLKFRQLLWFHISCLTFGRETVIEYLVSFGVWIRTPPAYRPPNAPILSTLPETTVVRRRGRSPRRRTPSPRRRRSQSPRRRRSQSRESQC", "UniProt Q99816": "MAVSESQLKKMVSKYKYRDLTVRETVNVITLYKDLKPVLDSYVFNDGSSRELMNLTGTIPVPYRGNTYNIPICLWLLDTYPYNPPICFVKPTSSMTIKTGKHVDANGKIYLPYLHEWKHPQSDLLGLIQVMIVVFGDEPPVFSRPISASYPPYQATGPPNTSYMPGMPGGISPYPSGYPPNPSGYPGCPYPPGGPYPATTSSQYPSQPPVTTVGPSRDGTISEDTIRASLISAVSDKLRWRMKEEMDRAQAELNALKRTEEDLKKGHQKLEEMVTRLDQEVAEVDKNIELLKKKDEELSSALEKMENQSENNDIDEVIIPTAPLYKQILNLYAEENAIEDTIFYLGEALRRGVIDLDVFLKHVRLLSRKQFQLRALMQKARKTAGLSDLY", "UniProt Q9H3S7": "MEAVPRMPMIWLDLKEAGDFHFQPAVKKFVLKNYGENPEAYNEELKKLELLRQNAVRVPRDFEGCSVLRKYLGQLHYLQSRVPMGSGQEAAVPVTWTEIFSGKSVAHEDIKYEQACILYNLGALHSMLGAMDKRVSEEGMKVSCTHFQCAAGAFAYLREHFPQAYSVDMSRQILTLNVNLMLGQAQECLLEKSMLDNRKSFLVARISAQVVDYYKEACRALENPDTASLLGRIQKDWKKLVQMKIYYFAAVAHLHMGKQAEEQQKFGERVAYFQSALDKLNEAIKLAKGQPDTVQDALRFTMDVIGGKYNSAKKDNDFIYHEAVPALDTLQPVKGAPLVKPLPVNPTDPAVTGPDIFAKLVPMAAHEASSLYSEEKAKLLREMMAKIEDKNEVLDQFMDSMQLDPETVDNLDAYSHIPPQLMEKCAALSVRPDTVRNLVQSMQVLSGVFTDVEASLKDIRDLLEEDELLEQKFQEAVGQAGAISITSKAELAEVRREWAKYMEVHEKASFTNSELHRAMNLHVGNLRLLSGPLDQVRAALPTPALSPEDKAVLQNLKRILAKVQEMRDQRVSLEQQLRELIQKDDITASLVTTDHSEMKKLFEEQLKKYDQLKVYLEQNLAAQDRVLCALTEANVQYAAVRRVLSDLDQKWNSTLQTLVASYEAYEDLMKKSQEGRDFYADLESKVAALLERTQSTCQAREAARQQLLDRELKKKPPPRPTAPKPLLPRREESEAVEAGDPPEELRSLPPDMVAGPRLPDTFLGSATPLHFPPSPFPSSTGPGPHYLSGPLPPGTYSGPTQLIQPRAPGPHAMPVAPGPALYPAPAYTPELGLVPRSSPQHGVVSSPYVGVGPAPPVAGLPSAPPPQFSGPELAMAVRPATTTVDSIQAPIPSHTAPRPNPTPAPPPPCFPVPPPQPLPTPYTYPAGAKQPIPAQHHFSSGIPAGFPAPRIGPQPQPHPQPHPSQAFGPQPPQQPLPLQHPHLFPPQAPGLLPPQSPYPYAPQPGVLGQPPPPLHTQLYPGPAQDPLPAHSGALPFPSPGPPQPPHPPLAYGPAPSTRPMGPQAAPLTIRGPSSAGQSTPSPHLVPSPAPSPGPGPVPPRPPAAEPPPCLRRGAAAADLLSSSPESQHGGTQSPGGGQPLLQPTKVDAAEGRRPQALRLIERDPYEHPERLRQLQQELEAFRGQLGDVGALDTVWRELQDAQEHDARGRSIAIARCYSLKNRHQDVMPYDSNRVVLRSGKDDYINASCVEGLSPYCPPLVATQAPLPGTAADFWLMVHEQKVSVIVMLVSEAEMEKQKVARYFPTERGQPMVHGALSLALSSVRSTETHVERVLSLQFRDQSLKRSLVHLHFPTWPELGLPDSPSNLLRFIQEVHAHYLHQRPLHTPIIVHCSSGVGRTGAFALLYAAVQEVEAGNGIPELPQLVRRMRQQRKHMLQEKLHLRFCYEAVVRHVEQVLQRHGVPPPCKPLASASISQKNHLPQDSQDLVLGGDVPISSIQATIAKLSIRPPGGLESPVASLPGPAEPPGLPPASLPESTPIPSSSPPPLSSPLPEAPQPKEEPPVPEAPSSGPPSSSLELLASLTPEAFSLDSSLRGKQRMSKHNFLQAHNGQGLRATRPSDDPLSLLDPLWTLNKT"},
  "source": "paper PMC10208485",
  "molecules": {"B1": {"name": "CHP1 (protein, UniProt Q99653 1-195)", "chain": "MGSRASTLLRDEELEEIKKETGFSHSQITRLYSRFTSLDKGENGTLSREDFQRIPELAINPLGDRIINAFFPEGEDQVNFRGFMRTLAHFRPIEDNEKSKDVNGPEPLNSRSNKLHFAFRLYDLDKDEKISRDELLQVLRMMVGVNISDEQLGSIADRTIQEADQDGDSAISFTEFVKVLEKVDVEQKMSIRFLH"}, "B2": {"name": "LMAN1 (protein, UniProt P49257 31-510)", "chain": "DGVGGDPAVALPHRRFEYKYSFKGPHLVQSDGTVPFWAHAGNAIPSSDQIRVAPSLKSQRGSVWTKTKAAFENWEVEVTFRVTGRGRIGADGLAIWYAENQGLEGPVFGSADLWNGVGIFFDSFDNDGKKNNPAIVIIGNNGQIHYDHQNDGASQALASCQRDFRNKPYPVRAKITYYQNTLTVMINNGFTPDKNDYEFCAKVENMIIPAQGHFGISAATGGLADDHDVLSFLTFQLTEPGKEPPTPDKEISEKEKEKYQEEFEHFQQELDKKKEEFQKGHPDLQGQPAEEIFESVGDRELRQVFEGQNRIHLEIKQLNRQLDMILDEQRRYVSSLTEEISKRGAGMPGQHGQITQQELDTVVKTQHEILRQVNEMKNSMSETVRLVSGMQHPGSAGGVYETTQHFIDIKEHLHIVKRDIDNLVQRNMPSNEKPKCPELPPFPSCLSTVHFIIFVVVQTVLFIGYIMYRSQQEAAAKKFF"}, "B3": {"name": "EHD1 (protein, UniProt Q9H4M9 1-534)", "chain": "MFSWVSKDARRKKEPELFQTVAEGLRQLYAQKLLPLEEHYRFHEFHSPALEDADFDNKPMVLLVGQYSTGKTTFIRHLIEQDFPGMRIGPEPTTDSFIAVMHGPTEGVVPGNALVVDPRRPFRKLNAFGNAFLNRFMCAQLPNPVLDSISIIDTPGILSGEKQRISRGYDFAAVLEWFAERVDRIILLFDAHKLDISDEFSEVIKALKNHEDKIRVVLNKADQIETQQLMRVYGALMWSLGKIINTPEVVRVYIGSFWSHPLLIPDNRKLFEAEEQDLFKDIQSLPRNAALRKLNDLIKRARLAKVHAYIISSLKKEMPNVFGKESKKKELVNNLGEIYQKIEREHQISPGDFPSLRKMQELLQTQDFSKFQALKPKLLDTVDDMLANDIARLMVMVRQEESLMPSQVVKGGAFDGTMNGPFGHGYGEGAGEGIDDVEWVVGKDKPTYDEIFYTLSPVNGKITGANAKKEMVKSKLPNTVLGKIWKLADVDKDGLLDDEEFALANHLIKVKLEGHELPADLPPHLVPPSKRRHE"}},
  "key": {"[1]": {"target": "N-terminal tagged Myc-HBc (hepatitis B virus capsid protein) (Hepatitis B virus) (UniProt P03146)", "experiment": "affinity purification with mass spectrometry"}, "[2]": {"target": "N-terminal tagged Myc-HBc (hepatitis B virus capsid protein) (Hepatitis B virus) (UniProt P03146)", "experiment": "affinity purification with mass spectrometry", "remark": "listed apart in the source"}},
  "note": "Read-outs that look alike come from different tables or passages of the source. These are yes or no findings as the source states them, for the method shown. Binding seen in cells or lysates may run through a third protein. Here binding means that the protein was enriched with, or labelled near, the bait; the list need not be complete.",
  "data": [
    {"molecule": "tumor susceptibility gene 101 (TSG101), endogenous (from UniProt Q99816 1-390)", "values": [
      {"measurement": "binding", "setting": "[1]", "result": "binds"}
    ]},
    {"molecule": "PTPN23 (from UniProt Q9H3S7 1-1636)", "values": [
      {"measurement": "binding", "setting": "[1]", "result": "binds"}
    ]},
    {"molecule": "B1", "values": [
      {"measurement": "binding", "setting": "[2]", "result": "binds"}
    ]},
    {"molecule": "B2", "values": [
      {"measurement": "binding", "setting": "[2]", "result": "binds"}
    ]},
    {"molecule": "B3", "values": [
      {"measurement": "binding", "setting": "[2]", "result": "binds"}
    ]}
  ]
}
